Where “and” joins values, the source holds several entries; their conditions need not be identical. Equal values may be shown once. The list shows a part of the results.

This is an account of results in paper PMC5996148.

Some test systems named below: juvenile (human); o (human); rC (human); raptor (human).
Common to all, as to experiment: protein microarray (ProtoArray v5.0), streptavidin-Alexa Fluor 647
Common to all, as to details: 3'-biotin; 20 mM Tris (pH 7.5), 5 mM MgCl2, 100 mM KCl, 0.1% Tween-20, A/T-rich and random oligonucleotide blockers; temperature not stated; high values mean tight binding

Assay [1] has as its system 14-3-3 protein sigma (human).
Assay [2] has as its system 26S proteasome non-ATPase regulatory subunit 7 (human).
The subject of assay [3] is 3-hydroxyanthranilate 3,4-dioxygenase (human).
Assay [4] concerns cDNA clone MGC:71618 IMAGE:30347370 (human).
Assay [5] concerns cDNA clone MGC:71981 IMAGE:30324263 (human).
In assay [6] the test system is cDNA clone MGC:8430 IMAGE:2821116 (human).
In assay [7] the test system is cDNA clone MGC:87051 IMAGE:5296643 (human).
In assay [8] the test system is cDNA clone MGC:87928 IMAGE:5104751 (human).
For assay [9], the system named is cDNA clone MGC:88809 IMAGE:6279986 (human).
Assay [10] deals with cDNA clone MGC:90486 IMAGE:5755352 (human).
For assay [11], the system named is hypothetical LOC554201 (human).
Assay [12] deals with in the protein list file (human).
Assay [13] concerns mRNA similar to hypothetical protein FLJ20234 (human).
Assay [14] deals with protein for MGC:19786 (human).
Assay [15] concerns rRNA-processing protein FCF1 homolog (human).
In assay [16] the test system is tRNA modification GTPase GTPBP3, mitochondrial (human).

“GGTGACAGGGGTATGGGGAGGGG [G4-2 biotinylated (Ct1)]”: the binding signal in [1] is -0.4 z-score; in assay [2] it was -0.38 z-score; in assay [3] it was -0.4 z-score.

In the case of “GGGAGGCTGAGGCAGG [G4-1 biotinylated (PQS2)]”, the binding signal in assay [4] was -0.311 z-score; in [5], -0.344 z-score; in assay [6] it was -0.346 z-score; in assay [7], -0.326 z-score; in assay [8] it was -0.347 z-score; in assay [9] it was -0.343 z-score. The binding signal in assay [10] was -0.286 z-score; in [11], -0.35 z-score; in assay [12], -0.335 z-score and -0.308 z-score; in the assay with juvenile (human) it was -0.343 z-score; in [13] it was -0.323 z-score; in the assay with o (human), -0.309 z-score. For the same sequence, the binding signal in assay [14] is -0.353 z-score; in the assay with rC (human) it was -0.338 z-score; in assay [15], 3.18 z-score; with raptor (human), -0.305 z-score; in [16] it was -0.333 z-score.
